Taken from: PubChem BioAssay AID743121 (NCATS, 2013)

Screen: 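Partners whose loss is lethal together with topoisomerase I blockade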 (primary screen)
Cells: MDA-MB-231 cells, a human breast cancer line
Knock-down reagent: single siRNA against human genes, 20 nM siRNA (0.8 pmol per well)
Timing: 120 h (drug added 48 h after transfection, read 72 h later)
Challenge: camptothecin 20 nM (about EC30) for 72 h; vehicle 0.1% DMSO in parallel plates
Detection: 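CellTiter-Glo ATP signal, scaled to control siRNA as percent viability; sensitisation given as log2 of untreated divided by camptothecin-treated viability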
Reading the numbers: log2 vehicle/camptothecin viability: higher = stronger sensitisation to camptothecin
Call rule: 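Active genes have an RSA gene-level p-value below 0.001, computed from the ratios of their separate siRNAs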
Shown is one part, drawn at random, of about 26,000 deposited reagents. Of all reagents, 167 (0.63%) are marked active. 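Calls are per gene from RSA p-values that are not deposited; an individual active-marked siRNA can sensitise only weakly.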 Not all columns of the deposit are shown.

How did the screen score UBR5 (GeneID 51366) [SID164473589]?
log2 vehicle/camptothecin viability: 0.132; call: inactive

Which result is listed for UBR5 (GeneID 51366) [SID164473590]?
log2 vehicle/camptothecin viability: -0.525; call: inactive

What did the screen give for UBR5 (GeneID 51366) [SID164473591]?
log2 vehicle/camptothecin viability: -0.443; call: inactive

For UBR5 (GeneID 51366) [SID164473593], how do the results read?
log2 vehicle/camptothecin viability: -0.0573; call: inactive

For TDG (GeneID 6996) [SID164391306], how do the results read?
log2 vehicle/camptothecin viability: -0.135; call: inactive

For TDG (GeneID 6996) [SID164391310], what does the deposit list?
log2 vehicle/camptothecin viability: 0.0648; call: inactive

What did the screen give for TDG (GeneID 6996) [SID164727533]?
log2 vehicle/camptothecin viability: 1.02; call: inactive

What is on record for TDG (GeneID 6996) [SID164727534]?
log2 vehicle/camptothecin viability: 0.0965; call: inactive

What did the screen give for RLN3 (GeneID 117579) [SID164565327]?
log2 vehicle/camptothecin viability: -0.766; call: inactive

Which result is listed for RLN3 (GeneID 117579) [SID164565328]?
log2 vehicle/camptothecin viability: 0.141; call: inactive

For RLN3 (GeneID 117579) [SID164565329], what was measured?
log2 vehicle/camptothecin viability: -0.11; call: inactive

What did the screen give for RLN3 (GeneID 117579) [SID164565330]?
log2 vehicle/camptothecin viability: -0.0884; call: inactive

For LGR5 (GeneID 8549) [SID164398366], what was measured?
log2 vehicle/camptothecin viability: 0.286; call: inactive

What did the screen give for LGR5 (GeneID 8549) [SID164398372]?
log2 vehicle/camptothecin viability: 0.162; call: inactive

What is on record for LGR5 (GeneID 8549) [SID164398373]?
log2 vehicle/camptothecin viability: -0.626; call: inactive

With LGR5 (GeneID 8549) [SID164398374], what does the deposit list?
log2 vehicle/camptothecin viability: -0.11; call: inactive

What did the screen give for DMBT1 (GeneID 1755) [SID164361705]?
log2 vehicle/camptothecin viability: -0.328; call: inactive

For DMBT1 (GeneID 1755) [SID164361707], how do the results read?
log2 vehicle/camptothecin viability: 0.00756; call: inactive

For DMBT1 (GeneID 1755) [SID164361708], what does the deposit list?
log2 vehicle/camptothecin viability: -0.434; call: inactive

For DMBT1 (GeneID 1755) [SID164361712], what was measured?
log2 vehicle/camptothecin viability: -0.3; call: inactive

With GSTZ1 (GeneID 2954) [SID164368023], what does the deposit list?
log2 vehicle/camptothecin viability: -0.557; call: inactive

For GSTZ1 (GeneID 2954) [SID164368024], how do the results read?
log2 vehicle/camptothecin viability: 0.159; call: inactive

Which result is listed for GSTZ1 (GeneID 2954) [SID164368028]?
log2 vehicle/camptothecin viability: -0.178; call: inactive

What did the screen give for SLC1A1 (GeneID 6505) [SID164388174]?
log2 vehicle/camptothecin viability: -0.26; call: inactive

Which result is listed for SLC1A1 (GeneID 6505) [SID164388175]?
log2 vehicle/camptothecin viability: -0.411; call: inactive

How did the screen score SLC1A1 (GeneID 6505) [SID164388176]?
log2 vehicle/camptothecin viability: -0.253; call: inactive

Which result is listed for SLC1A1 (GeneID 6505) [SID164388177]?
log2 vehicle/camptothecin viability: 0.148; call: inactive

No new results follow: 3 of the entries above.
TDG (GeneID 6996) [SID164727533] → log2 vehicle/camptothecin viability: 1.02; call: inactive
TDG (GeneID 6996) [SID164727534] → log2 vehicle/camptothecin viability: 0.0965; call: inactive
RLN3 (GeneID 117579) [SID164565327] → log2 vehicle/camptothecin viability: -0.766; call: inactive
